# Data as given in PubChem BioAssay AID1224828 (NIAID, 2016).
# Purpose: 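Knock-downs that increase or decrease LPS-induced p65 nuclear translocation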 (primary screen)
# Cells: mouse RAW264.7 G9 macrophage reporter cells (GFP-p65, Tnf promoter-mCherry)
# Knock-down reagent: siRNA pool against mouse genes, 100 nM
# Duration: 2 days siRNA transfection, then 40 min LPS before fixation
# Treatment: LPS (Salmonella minnesota R595) at 10 ng/ml
# Detection: 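Imaged p65 nuclear translocation ratio, normalised to the plate median, converted to robust z-scores and averaged across two replicates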
# Direction: p65 translocation robust z-score: higher = more nuclear NF-kappaB p65 after LPS than the plate median; nuclear/cytoplasmic p65 ratio: higher = more nuclear NF-kappaB p65
# Active means: 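Called active when z exceeds 3.3 or falls under -1.56 (median of Tlr4 controls), giving activity score of at least 50; no calls for control wells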
# Calls: active = hit (p65 shift raised or lowered); inactive = no clear change
# The deposit covers about 17,000 reagents; shown is an unselected part. Of all reagents, 762 (4.5%) were called active. 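Active calls include both raised and lowered p65 entry, mostly lowered; wells with fewer than 50 cells lack a z-score.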 Raw values vary from plate to plate and are shown uncorrected. Entries without a mark were called inactive. The numbers tell different reagents against one gene apart.
Target gene,reagent,p65 translocation robust z-score,"nuclear/cytoplasmic p65 ratio, rep 1","nuclear/cytoplasmic p65 ratio, rep 2",low cell count flag
Lilrb4a,1,0.37,1.45,1.46,enough cells to score
Or5b120 (olfactory receptor family 5 subfamily B member 120),1,0.68,1.75,1.48,enough cells to score
Fut1 (fucosyltransferase 1),1,-0.92,1.36,1.21,enough cells to score
Nckap1l (NCK associated protein 1 like),1,0.41,1.35,1.32,enough cells to score
Rab3gap2 (RAB3 GTPase activating protein subunit 2),1,-0.66,1.44,1.58,enough cells to score
Hdac9 (histone deacetylase 9),1,-0.68,1.36,1.31,enough cells to score
Hdac9 (histone deacetylase 9),2,-1.43,1.42,1.35,enough cells to score
Pex26 (peroxisomal biogenesis factor 26),1,,1.26,1.07,fewer than 50 cells per well; well left out of scoring
"Etfa (electron transferring flavoprotein, alpha polypeptide)",1,0.44,1.54,1.41,enough cells to score
Tex9 (testis expressed gene 9),1,1.61,1.67,1.29,enough cells to score
Rragd (Ras-related GTP binding D),1,0.52,1.6,1.43,enough cells to score
Gap43 (growth associated protein 43),1,-0.94,1.57,1.24,enough cells to score
Irx1 (Iroquois homeobox 1),1,1.32,1.71,1.63,enough cells to score
Cep78 (centrosomal protein 78),1,1.33,1.52,1.64,enough cells to score
"Rab4a (RAB4A, member RAS oncogene family)",1,0.72,1.74,1.5,enough cells to score
"Cyct (cytochrome c, testis)",1,2.6,1.83,2.35,enough cells to score
"Col8a1 (collagen, type VIII, alpha 1)",1,-1.42,1.22,1.25,enough cells to score
Sgms1 (sphingomyelin synthase 1),1,0.62,1.33,1.63,enough cells to score
Cd5l (CD5 antigen-like),1,-2.03 (active),1.39,1.12,enough cells to score
Tmx2 (thioredoxin-related transmembrane protein 2),1,-1.07,1.3,1.1,enough cells to score
Tcstv1a (2 cell stage variable group member 1A),1,-0.47,1.3,1.14,enough cells to score
Pgghg (protein glucosylgalactosylhydroxylysine glucosidase),1,0.2,1.69,1.6,enough cells to score
P4ha1,1,0.37,1.56,1.4,enough cells to score
Tec (tec protein tyrosine kinase),1,-1.56,1.37,1.19,enough cells to score
"Scara3 (scavenger receptor class A, member 3)",1,0.53,1.6,1.58,enough cells to score
Tm9sf1 (transmembrane 9 superfamily member 1),1,0.89,1.48,1.34,enough cells to score
Smyd3 (SET and MYND domain containing 3),1,1.01,1.34,1.72,enough cells to score
Akap13 (A kinase anchor protein 13),1,0.22,1.76,1.39,enough cells to score
Ormdl3 (ORM1-like 3 (S. cerevisiae)),1,0.7,1.56,1.3,enough cells to score
Pld1 (phospholipase D1),1,0.01,1.52,1.39,enough cells to score
B9d2 (B9 protein domain 2),1,-0.07,1.55,1.85,enough cells to score

Part of the list above, reformatted:
Hdac9 (histone deacetylase 9) #1
- p65 translocation robust z-score: -0.68
- nuclear/cytoplasmic p65 ratio, rep 1: 1.36
- nuclear/cytoplasmic p65 ratio, rep 2: 1.31
- low cell count flag: enough cells to score

Hdac9 (histone deacetylase 9) #2
- p65 translocation robust z-score: -1.43
- nuclear/cytoplasmic p65 ratio, rep 1: 1.42
- nuclear/cytoplasmic p65 ratio, rep 2: 1.35
- low cell count flag: enough cells to score

Pex26 (peroxisomal biogenesis factor 26)
- nuclear/cytoplasmic p65 ratio, rep 1: 1.26
- nuclear/cytoplasmic p65 ratio, rep 2: 1.07
- low cell count flag: fewer than 50 cells per well; well left out of scoring

Continued.
Target gene,reagent,p65 translocation robust z-score,"nuclear/cytoplasmic p65 ratio, rep 1","nuclear/cytoplasmic p65 ratio, rep 2",low cell count flag
Chuk (conserved helix-loop-helix ubiquitous kinase),1,-1.75 (active),1.27,1.16,enough cells to score
Metap2 (methionine aminopeptidase 2),1,-0.9,1.57,1.42,enough cells to score
Or4f57 (olfactory receptor family 4 subfamily F member 57),1,1.47,1.83,1.47,enough cells to score
Cxcl12 (C-X-C motif chemokine ligand 12),1,0.04,1.51,1.51,enough cells to score
Il9r (interleukin 9 receptor),1,0.71,1.59,1.45,enough cells to score
"Nsl1 (NSL1, MIS12 kinetochore complex component)",1,,1.31,0,fewer than 50 cells per well; well left out of scoring
Rhbdf2 (rhomboid 5 homolog 2),1,0.01,1.62,1.61,enough cells to score
Sfmbt1 (Scm-like with four mbt domains 1),1,-0.47,1.33,1.21,enough cells to score
Sfmbt1 (Scm-like with four mbt domains 1),2,1.28,1.58,1.75,enough cells to score
"Rhpn1 (rhophilin, Rho GTPase binding protein 1)",1,,1.26,1.22,fewer than 50 cells per well; well left out of scoring
Tnxb (tenascin XB),1,-0.21,1.61,1.37,enough cells to score
Sorcs2 (sortilin-related VPS10 domain containing receptor 2),1,0.48,1.51,1.74,enough cells to score
Or2d2 (olfactory receptor family 2 subfamily D member 2),1,,1.28,1.11,fewer than 50 cells per well; well left out of scoring
Dppa3 (developmental pluripotency-associated 3),1,,1.26,1.39,fewer than 50 cells per well; well left out of scoring
Pbx3 (pre B cell leukemia homeobox 3),1,-0.88,1.28,1.34,enough cells to score
Cttnbp2nl (CTTNBP2 N-terminal like),1,0.81,1.73,1.95,enough cells to score
COL6A3,1,2.41,1.89,2.23,enough cells to score
Slc38a11,1,0.92,1.54,1.68,enough cells to score
"Eif3f (eukaryotic translation initiation factor 3, subunit F)",1,-0.49,1.45,1.26,enough cells to score
"Tuba4a (tubulin, alpha 4A)",1,0.47,1.66,1.49,enough cells to score
Rexo2 (RNA exonuclease 2),1,,1.49,1.37,fewer than 50 cells per well; well left out of scoring
Acsl4 (acyl-CoA synthetase long-chain family member 4),1,-0.11,1.62,1.58,enough cells to score
Serpina1b,1,-0.34,1.43,1.58,enough cells to score
"Prl8a2 (prolactin family 8, subfamily a, member 2)",1,0.92,1.5,1.56,enough cells to score
Slc39a1,1,,1.91,1.56,fewer than 50 cells per well; well left out of scoring
"Pals2 (protein associated with LIN7 2, MAGUK family member)",1,1.51,1.75,1.73,enough cells to score
"Pals2 (protein associated with LIN7 2, MAGUK family member)",2,0.82,1.95,1.68,enough cells to score
"Abcb10 (ATP-binding cassette, sub-family B member 10)",1,-2.11 (active),1.26,1.39,enough cells to score
